# Drug screen on melanoma cell lines: cell count

Values as published with doi:10.1371/journal.pone.0140310, rounded.

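Human melanoma cells were exposed to a pair of drugs for 72 h in 1,536-well plates and read by automated microscopy after fixing and staining. Each value is the count of nuclei relative to DMSO-treated wells, in %, so that 100 equals the control. Concentrations were fixed for each drug; these are the lower of two levels, a fifth of the higher. No replicate spread is given; individual values may be noisy.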 An unselected part of the screen is shown. A dash means that no value is listed here.

All values are for the listed drug together with tanespimycin (0.002 µM): C=CCNC1=C2C[C@@H](C)C[C@H](OC)[C@H](O)[C@@H](C)/C=C(\C)[C@H](OC(N)=O)[C@@H](OC)/C=C\C=C(/C)C(=O)NC(=CC1=O)C2=O

Drugs:
bexarotene, 2 µM: C=C(c1ccc(C(=O)O)cc1)c1cc2c(cc1C)C(C)(C)CCC2(C)C
stibogluconate, 2 µM: O=C(O)[C@@H]1[O][Sb](=[O])([O][Sb]2(=[O])[O][C@H]([C@H](O)CO)[C@H](O)[C@H](C(=O)O)[O]2)[O][C@H]([C@H](O)CO)[C@@H]1O (some centres undefined)
darinaparsin, 0.4 µM: C[As](C)SC[C@H](NC(=O)CC[C@H](N)C(=O)O)C(=O)NCC(=O)O
sorafenib, 0.4 µM: CNC(=O)c1cc(Oc2ccc(NC(=O)Nc3ccc(Cl)c(C(F)(F)F)c3)cc2)ccn1
decitabine, 0.1 µM: Nc1ncn([C@H]2C[C@H](O)[C@@H](CO)O2)c(=O)n1
NVP-BEZ235, 0.004 µM: Cn1c(=O)n(-c2ccc(C(C)(C)C#N)cc2)c2c3cc(-c4cnc5ccccc5c4)ccc3ncc21
vismodegib, 1 µM: CS(=O)(=O)c1ccc(C(=O)Nc2ccc(Cl)c(-c3ccccn3)c2)c(Cl)c1
erlotinib, 0.8 µM: C#Cc1cccc(Nc2ncnc3cc(OCCOC)c(OCCOC)cc23)c1
tozasertib, 0.006 µM: Cc1cc(Nc2cc(N3CCN(C)CC3)nc(Sc3ccc(NC(=O)C4CC4)cc3)n2)n[nH]1
vatalanib, 2 µM: Clc1ccc(Nc2nnc(Cc3ccncc3)c3ccccc23)cc1
tipifarnib, 0.01 µM: Cn1cncc1[C@@](N)(c1ccc(Cl)cc1)c1ccc2c(c1)c(-c1cccc(Cl)c1)cc(=O)n2C
temozolomide, 2 µM: Cn1nnc2c(C(N)=O)ncn2c1=O
selumetinib, 0.015 µM: Cn1cnc2c(F)c(Nc3ccc(Br)cc3Cl)c(C(=O)NOCCO)cc21
sunitinib, 0.4 µM: CCN(CC)CCNC(=O)c1c(C)[nH]c(/C=C2\C(=O)Nc3ccc(F)cc32)c1C
perifosine, 0.4 µM: CCCCCCCCCCCCCCCCCCOP(=O)([O-])OC1CC[N+](C)(C)CC1
YM155, 0.0004 µM: COCC[n+]1c2c(n(Cc3cnccn3)c1C)C(=O)c1ccccc1C2=O
everolimus, 0.02 µM: CO[C@H]1C[C@@H]2CC[C@@H](C)[C@@](O)(O2)C(=O)C(=O)N2CCCC[C@H]2C(=O)O[C@H]([C@H](C)C[C@@H]2CC[C@@H](OCCO)[C@H](OC)C2)CC(=O)[C@H](C)/C=C(\C)[C@@H](O)[C@@H](OC)C(=O)[C@H](C)C[C@H](C)/C=C/C=C/C=C/1C
ABT-263, 0.4 µM: CC1(C)CCC(c2ccc(Cl)cc2)=C(CN2CCN(c3ccc(C(=O)NS(=O)(=O)c4ccc(N[C@H](CCN5CCOCC5)CSc5ccccc5)c(S(=O)(=O)C(F)(F)F)c4)cc3)CC2)C1
etoposide, 0.02 µM: COc1cc([C@@H]2c3cc4c(cc3[C@@H](O[C@@H]3O[C@@H]5CO[C@@H](C)O[C@H]5[C@H](O)[C@H]3O)[C@H]3COC(=O)[C@H]23)OCO4)cc(OC)c1O
gemcitabine, 0.0004 µM: Nc1ccn([C@@H]2O[C@H](CO)[C@@H](O)C2(F)F)c(=O)n1
veliparib, 1.4 µM: C[C@]1(c2nc3c(C(N)=O)cccc3[nH]2)CCCN1
cisplatin, 1.6 µM: N.N.[Cl][Pt][Cl]
enzastaurin, 0.8 µM: Cn1cc(C2=C(c3cn(C4CCN(Cc5ccccn5)CC4)c4ccccc34)C(=O)NC2=O)c2ccccc21
PF-562271, 0.08 µM: CN(c1ncccc1CNc1nc(Nc2ccc3c(c2)CC(=O)N3)ncc1C(F)(F)F)S(C)(=O)=O

Partner | COLO 829 | IPC-298 | COLO 792 | COLO 800 | LB2518-MEL
decitabine | 72.0 | 60.5 | 88.1 | 69.6 | 73.7
bexarotene | 93.9 | 95.3 | 96.9 | 116 | 121
everolimus | 79.1 | 76.3 | 48.9 | 70.3 | 71.6
stibogluconate | 104 | 104 | 123 | 85.8 | 96.4
vismodegib | 103 | 91.3 | 88.7 | 61.3 | 110
veliparib | 79.2 | 97.4 | 94.5 | 72.6 | 90.7
YM155 | 114 | 92.3 | 101 | 78.9 | 110
cisplatin | 104 | 103 | 91.7 | 81.4 | 103
darinaparsin | 88.3 | 97.2 | 87.3 | 114 | 95.1
enzastaurin | 93.3 | 96.8 | 91.3 | 133 | 87.6
vatalanib | 108 | 92.3 | 89.1 | 127 | 87.7
ABT-263 | 97.8 | 102 | 66.6 | 86.5 | -
NVP-BEZ235 | 83.0 | 101 | 93.4 | 123 | 87.0
perifosine | 96.7 | 94.2 | 123 | 80.0 | 115
selumetinib | 125 | 70.4 | 91.2 | 87.2 | -
sunitinib | 103 | 95.8 | 94.3 | 68.1 | 112
etoposide | 65.9 | 108 | 102 | 133 | 97.8
tipifarnib | 90.3 | 97.0 | 104 | 145 | 75.6
tozasertib | 90.8 | 95.4 | 94.9 | 53.6 | 90.0
gemcitabine | 104 | 76.6 | 101 | 56.7 | 90.8
temozolomide | 109 | 104 | 102 | 112 | -
PF-562271 | 81.0 | 91.1 | 68.7 | 96.0 | 94.8
erlotinib | 87.5 | 93.8 | 95.7 | 83.2 | 94.2
sorafenib | 81.9 | 92.7 | 98.1 | 95.7 | 92.1